# Test results taken from the supplement of paper PMC10735217.
# Counter-ions that a name gives are not always drawn. The list shows a part of the results. This data set is noisy: repeats of one test often differ as much as different tests do.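 Human kidney-derived cells stably carry a construct in which eight TEAD-binding elements drive luciferase, measured by luminescence in a drug-repurposing library screen. A hit is any compound whose signal exceeds the plate mean by more than five robust Z scores.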
# Tested on: HEK293A TEAD-LUC reporter
# Assay: TEAD-luciferase reporter activity (YAP activation), robust Z score vs plate; higher = stronger YAP/TEAD activation
# Conditions: 24 h
Compound,TEAD-luciferase reporter activity (compound concentration: 200 nM),TEAD-luciferase reporter activity (compound concentration: 2 uM),TEAD-luciferase reporter activity (compound concentration: 10 uM)
CC(C)[C@H](N)C(=O)OC1C[C@@H](n2ccc(N)nc2=O)O[C@H]1CO (some centres not stated) [Valtorcitabine dihydrochloride],inactive: -0.856,inactive: 1.38,active: 7.87
CC(=O)N[C@@H](CSC(=O)c1ccccc1OC(C)=O)C(=O)O [Salmisteine],inactive: -0.914,inactive: -0.936,inactive: -1.52
Cc1cccc(OCC(O)CNC(C)(C)C)c1C (configuration not stated) [xibenolol],inactive: 0.00972,inactive: -0.752,inactive: 0.744
CCOc1cc2c(c(F)c1OCC)C(=N)N(CC(=O)c1cc(N3CCOCC3)c(OC)c(C(C)(C)C)c1)C2 [atopaxar],inactive: 0.124,inactive: -0.151,inactive: -1.69
CC(=O)NCC1CN(c2ccc(N3CCCCC3)c(F)c2)C(=O)O1 (configuration not stated),inactive: -1.82,inactive: -0.493,inactive: -1.09
Cc1cc(-c2cc(OC(=O)c3ccccc3)ccc2Cl)cc2nnc(Nc3ccc(OCCN4CCCC4)cc3)nc12,inactive: -0.512,inactive: 0.961,inactive: 0.667
COc1cc2c(cc1O)[C@@H]1Cc3ccc(O)c(OC)c3CN1CC2 [(-)-Stepholidine],inactive: 1.16,inactive: -1.95,inactive: 1.49
C[C@@H](O)[C@H]1C(=O)N2C(C(=O)O)=C([C@H]3CCCO3)S[C@H]12 [Faropenem sodium],inactive: 1.4,inactive: -0.906,inactive: 0.599
CC1CCCc2n1c(=O)cc[n+]2C (configuration not stated),inactive: -1.82,inactive: -1.53,inactive: -0.669
CCCC/N=C(/c1cc(Cl)ccc1O)c1ccccc1Cl [Fengabine],inactive: -1.4,inactive: -1.32,inactive: 2.89
CCOc1ccc(-c2nc(-c3cccc(C(=O)O)n3)cs2)cc1OCC [tetomilast],inactive: -0.891,inactive: -0.0864,inactive: 2.47
C=CC(=O)N1C[C@H](Nc2ncnc3[nH]ccc23)CC[C@@H]1C,inactive: -0.766,inactive: 0.591,inactive: 0.0852
N[C@@H](CC(=O)N1CCc2c(nc(C(F)(F)F)nc2C(F)(F)F)C1)CN1CC(F)(F)CCC1=O [Gemigliptin],inactive: -0.603,inactive: 0.798,inactive: 0.675
COc1ccc2c(c1)N(c1ccccc1F)C(=O)[C@@]2(CCC(=O)O)NC(=O)c1cc2ccccc2cn1,inactive: -0.716,inactive: -0.0844,inactive: -0.131
COc1ccccc1N1CCN(CCCNc2ncccc2C(=O)N(C)C)CC1,inactive: -0.655,inactive: -2.08,inactive: -0.711
"Oc1cc(O)c2c(c1)O[C@H](c1ccc(O)c(O)c1)[C@H](O)C2c1c(O)cc(O)c2c1O[C@H](c1ccc(O)c(O)c1)[C@H](O)C2 (single isomer, unassigned; (-)) [[(-)-Epicatechin-(-)-epicatechin]]",inactive: -0.486,inactive: -1.55,inactive: 0.0996
O=C(O)CC1C=C(c2ccccc2)NO1 (configuration not stated),inactive: -1.04,inactive: 0.508,inactive: 2.83
O=S(=O)(O)OC1C(O)C(CO)OC(OC2C(CO)OC(OCc3ccccc3)C(O)C2O)C1O (configuration not stated),inactive: -1.63,inactive: -0.689,inactive: 0.192
CC(=O)Oc1cc2c(s1)CCN(C(C(=O)C1CC1)c1ccccc1F)C2 (configuration not stated) [prasugrel hydrochloride],inactive: -0.716,inactive: 2.67,inactive: 1.29
Cc1ccc(S(N)(=O)=O)cc1 [P-Toluenesulfonamide],inactive: -1.69,inactive: -0.343,inactive: 0.585
COCC1CN(c2ccc(OCc3cccc(C#N)c3)cc2)C(=O)O1 (configuration not stated),inactive: 0.0886,inactive: -0.948,inactive: 0.538
COc1ccc(-c2nc(-c3ccccc3F)[nH]c2-c2ccc(OC)cc2)cc1,inactive: -1.16,inactive: 1.05,inactive: -0.533
Cc1ccc2c(c1CCC(=O)O)CC[C@H](NS(=O)(=O)c1ccc(Cl)cc1)C2,inactive: -0.376,inactive: -1.79,inactive: 1.32
CN(Cc1nc2ccccc2[nH]1)C(=O)c1ccc2c(c1)CN(C)C(=O)[C@H](CC(=O)O)N2,inactive: -1.91,inactive: -2.38,inactive: -1.55

# 2 compounds drawn at random from the list so far, as already listed:
Compound,TEAD-luciferase reporter activity (compound concentration: 200 nM),TEAD-luciferase reporter activity (compound concentration: 2 uM),TEAD-luciferase reporter activity (compound concentration: 10 uM)
N[C@@H](CC(=O)N1CCc2c(nc(C(F)(F)F)nc2C(F)(F)F)C1)CN1CC(F)(F)CCC1=O [Gemigliptin],inactive: -0.603,inactive: 0.798,inactive: 0.675
CCOc1ccc(-c2nc(-c3cccc(C(=O)O)n3)cs2)cc1OCC [tetomilast],inactive: -0.891,inactive: -0.0864,inactive: 2.47
